Assay results published in the supplement of paper PMC10849652.
Some of the results follow. Residues, ends and D or L forms follow the SMILES beside them. *: point of attachment. Cbz = O=C(OCc1ccccc1)*

The chains behind the UniProt entries cited, without tags or fusion partners. Where a name states a change or a piece, a line headed by the entry shows the natural chain unless it says otherwise.
UniProt O60942: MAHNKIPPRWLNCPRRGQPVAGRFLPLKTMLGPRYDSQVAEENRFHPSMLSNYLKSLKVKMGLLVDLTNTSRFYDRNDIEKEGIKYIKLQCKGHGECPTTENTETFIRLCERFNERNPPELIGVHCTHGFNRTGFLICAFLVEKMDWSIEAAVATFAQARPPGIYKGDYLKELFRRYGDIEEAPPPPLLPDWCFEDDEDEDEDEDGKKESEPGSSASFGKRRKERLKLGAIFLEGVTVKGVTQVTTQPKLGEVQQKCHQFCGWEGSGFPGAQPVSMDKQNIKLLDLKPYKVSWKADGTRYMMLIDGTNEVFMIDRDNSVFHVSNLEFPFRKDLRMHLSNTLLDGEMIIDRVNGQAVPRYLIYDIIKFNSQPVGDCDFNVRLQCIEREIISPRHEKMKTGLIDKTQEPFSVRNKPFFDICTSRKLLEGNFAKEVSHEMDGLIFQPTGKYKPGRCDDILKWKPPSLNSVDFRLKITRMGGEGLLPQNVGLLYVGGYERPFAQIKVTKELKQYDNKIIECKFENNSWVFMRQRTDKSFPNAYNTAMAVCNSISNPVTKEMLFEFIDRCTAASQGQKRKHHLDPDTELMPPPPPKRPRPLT
UniProt Q96AT9: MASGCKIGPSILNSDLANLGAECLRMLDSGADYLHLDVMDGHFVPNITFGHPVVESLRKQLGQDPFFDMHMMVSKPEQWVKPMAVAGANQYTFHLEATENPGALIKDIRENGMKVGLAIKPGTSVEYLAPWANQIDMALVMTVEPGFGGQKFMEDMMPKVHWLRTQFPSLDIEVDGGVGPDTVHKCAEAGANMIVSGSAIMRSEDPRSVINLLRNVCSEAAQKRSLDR
UniProt Q5VT52: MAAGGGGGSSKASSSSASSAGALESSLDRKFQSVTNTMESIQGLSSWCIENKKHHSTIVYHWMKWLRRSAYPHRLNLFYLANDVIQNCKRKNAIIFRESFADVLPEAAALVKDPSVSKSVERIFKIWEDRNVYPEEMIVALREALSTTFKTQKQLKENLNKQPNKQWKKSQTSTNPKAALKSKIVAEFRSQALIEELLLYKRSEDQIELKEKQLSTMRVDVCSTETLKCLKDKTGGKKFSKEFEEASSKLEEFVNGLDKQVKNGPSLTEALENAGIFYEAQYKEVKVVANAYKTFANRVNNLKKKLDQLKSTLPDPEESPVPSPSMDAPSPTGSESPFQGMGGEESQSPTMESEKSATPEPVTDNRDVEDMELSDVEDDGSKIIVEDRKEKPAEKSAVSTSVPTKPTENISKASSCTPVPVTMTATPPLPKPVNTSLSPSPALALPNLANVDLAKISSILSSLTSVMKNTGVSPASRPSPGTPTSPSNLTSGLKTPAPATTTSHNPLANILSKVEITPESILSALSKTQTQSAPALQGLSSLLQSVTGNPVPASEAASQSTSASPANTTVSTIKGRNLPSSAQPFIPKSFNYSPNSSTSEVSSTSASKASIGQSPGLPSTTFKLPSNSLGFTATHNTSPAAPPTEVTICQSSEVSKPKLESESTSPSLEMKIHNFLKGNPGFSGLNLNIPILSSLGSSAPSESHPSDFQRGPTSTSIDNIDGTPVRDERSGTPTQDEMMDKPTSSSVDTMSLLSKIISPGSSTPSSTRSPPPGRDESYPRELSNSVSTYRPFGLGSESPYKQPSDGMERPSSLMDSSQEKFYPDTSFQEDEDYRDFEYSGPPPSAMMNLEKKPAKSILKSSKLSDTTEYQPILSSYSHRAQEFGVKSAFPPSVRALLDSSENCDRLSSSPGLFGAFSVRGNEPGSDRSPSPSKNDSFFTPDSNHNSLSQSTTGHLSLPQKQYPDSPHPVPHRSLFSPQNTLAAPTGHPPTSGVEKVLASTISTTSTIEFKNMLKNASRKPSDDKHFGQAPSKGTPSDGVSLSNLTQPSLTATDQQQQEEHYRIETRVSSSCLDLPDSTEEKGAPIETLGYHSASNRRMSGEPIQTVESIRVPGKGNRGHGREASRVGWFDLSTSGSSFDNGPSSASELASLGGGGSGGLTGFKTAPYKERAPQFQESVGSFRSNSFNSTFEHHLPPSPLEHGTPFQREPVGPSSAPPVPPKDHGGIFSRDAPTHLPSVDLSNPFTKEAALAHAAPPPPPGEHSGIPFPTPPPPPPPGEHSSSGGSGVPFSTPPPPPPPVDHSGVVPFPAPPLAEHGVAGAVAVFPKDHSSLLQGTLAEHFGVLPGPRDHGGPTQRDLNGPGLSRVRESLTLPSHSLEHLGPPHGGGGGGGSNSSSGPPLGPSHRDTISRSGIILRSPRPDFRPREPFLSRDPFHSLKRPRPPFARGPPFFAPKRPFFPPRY
UniProt Q9H4A4: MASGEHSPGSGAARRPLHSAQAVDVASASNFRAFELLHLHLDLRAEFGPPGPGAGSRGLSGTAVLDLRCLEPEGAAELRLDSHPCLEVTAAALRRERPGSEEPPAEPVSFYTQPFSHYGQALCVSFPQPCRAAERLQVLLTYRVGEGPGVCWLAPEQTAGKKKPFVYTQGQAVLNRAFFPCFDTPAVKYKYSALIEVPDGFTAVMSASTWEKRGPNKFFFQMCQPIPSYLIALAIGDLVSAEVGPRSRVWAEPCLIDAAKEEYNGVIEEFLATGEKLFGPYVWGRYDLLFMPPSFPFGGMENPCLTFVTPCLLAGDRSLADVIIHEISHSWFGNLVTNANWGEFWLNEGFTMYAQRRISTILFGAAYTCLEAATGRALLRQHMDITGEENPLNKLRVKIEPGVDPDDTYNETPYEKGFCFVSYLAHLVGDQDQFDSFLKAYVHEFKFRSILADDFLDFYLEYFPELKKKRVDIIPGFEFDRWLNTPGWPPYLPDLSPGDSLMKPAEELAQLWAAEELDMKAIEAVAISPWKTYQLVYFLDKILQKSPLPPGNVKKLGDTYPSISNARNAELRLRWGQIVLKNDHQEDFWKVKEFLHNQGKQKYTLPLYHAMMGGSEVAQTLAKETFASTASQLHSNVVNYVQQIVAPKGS
UniProt Q8IZ73: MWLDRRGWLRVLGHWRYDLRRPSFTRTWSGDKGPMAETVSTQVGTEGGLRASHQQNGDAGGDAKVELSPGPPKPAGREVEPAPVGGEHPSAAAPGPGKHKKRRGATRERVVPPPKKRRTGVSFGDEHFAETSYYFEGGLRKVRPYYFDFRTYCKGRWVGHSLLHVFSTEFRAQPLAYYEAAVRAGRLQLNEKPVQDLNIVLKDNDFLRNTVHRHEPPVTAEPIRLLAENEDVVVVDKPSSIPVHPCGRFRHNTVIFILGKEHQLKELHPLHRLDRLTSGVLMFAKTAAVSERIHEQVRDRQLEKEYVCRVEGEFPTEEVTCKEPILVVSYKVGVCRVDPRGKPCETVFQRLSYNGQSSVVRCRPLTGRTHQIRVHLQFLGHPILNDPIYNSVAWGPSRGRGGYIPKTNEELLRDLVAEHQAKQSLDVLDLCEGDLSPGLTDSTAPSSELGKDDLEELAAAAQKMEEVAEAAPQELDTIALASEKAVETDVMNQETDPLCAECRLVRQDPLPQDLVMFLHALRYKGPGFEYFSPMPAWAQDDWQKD

How the values were obtained:
Test in all cases: log2 fold change, soluble protein after heating vs DMSO (PISA); higher = thermal stabilisation; K562 cells, 10 uM, 30 min; active = over 0.2 and 3.5 SD of the protein, either way, in both replicates (recomputed)
[1] = compound: C#Cc1cccc(Nc2ncnc3cc(OCCOC)c(OCCOC)cc23)c1 [erlotinib]
Outline: (§1)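 K562 cells at 2×10^6 cells/mL were given 10 μM compound for 30 min. Aliquots then went through 3 min of heating across 48°C-58°C, were pooled, and were extracted in PBS with 0.5% NP-40 at 4°C, and the supernatant after 21,000xg for 90 min was quantified by TMTpro 16plex LC-MS/MS with channel sums equalised. Thermal stability relative to control samples, from duplicates, is given as log2 fold change.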

[2] = compound: C/C(=N\NC(=O)C1=CC(=CC=C1)S(=O)(=O)N2CCOCC2)/C3=C(C=CC(=C3)Cl)O
Outline: as §1

[3] = compound: C1=CC(=C(C=C1Cl)C2=NC3=NC=CN=C3C(=N2)NC4=CC=NC=C4)F
Outline: as §1

[4] = compound: C1=CC(=CC=C1C2=NC3=C(N2)C=C(C=C3)C(=O)N)OC4=CC=C(C=C4)Cl
Outline: as §1

[5] = compound: C1=CC2=C(C=CC(=C2)/C=C\3/C(=O)NC(=NCC4=CC=CS4)S3)N=C1
Outline: as §1

[6] = compound: C1=CC2=NC=CN=C2C=C1/C=C/3\C(=O)NC(=O)S3
Outline: as §1

[7] = compound: C1=CC=C(C=C1)C2=NC(=C(N2)C3=CC=NC=C3)C4=CC(=C(C=C4)Cl)O
Outline: as §1

[8] = compound: C1=CC=C2C(=C1)C3=NNC4=CC=CC(=C43)C2=O
Outline: as §1

[9] = compound: C1CCN(C1)C(=O)NC2=CC=CC(=C2)NC3=NC=C(C(=N3)NCCC4=CN=CN4)Br
Outline: as §1

[10] = compound: C1CN(CCC1(CC2=CC=C(C=C2)Cl)N)C3=NC=NC4=C3C=CN4
Outline: as §1

[11] = compound: C1COCCN1CCN2C3=CC=CC=C3N=C2NC(=O)C4=CC(=CC=C4)[N+](=O)[O-] [IRAK-1-4 Inhibitor I]
Outline: as §1

[12] = compound: C=CC(=O)N1CCC[C@@H](n2nc(-c3ccc(Oc4ccccc4)cc3)c3c(N)ncnc32)C1 [ibrutinib]
Outline: as §1

[13] = compound: CC(=O)c1cnc2ccc(-c3cc(Cl)c(O)c(Cl)c3)nc2c1N[C@H]1CC[C@H](CN(C)C)CC1
Outline: as §1

[14] = compound: CC(C)(C)Cn1c(N)nc2ccc(-c3[nH]c(C(C)(C)C)nc3-c3ccc(F)cc3)nc21 [ralimetinib]
Outline: as §1

[15] = compound: CC(C)(O)CC(=O)NCCn1ccc2ncnc(Nc3ccc(Oc4cccc(C(F)(F)F)c4)c(Cl)c3)c21
Outline: as §1

[16] = compound: CC(C)C1=C2N=C(C=C(N2N=C1)NCC3=CC=CC=C3)NCCCCCCN
Outline: as §1

[17] = compound: CC(C)C[C@@H](C=O)NC(=O)[C@H](CC(C)C)NC(=O)[C@H](CC(C)C)NC(=O)OCc1ccccc1
Outline: as §1

[18] = compound: CC(C)N(C[C@H]1O[C@@H](n2cnc3c(N)ncnc32)[C@H](O)[C@@H]1O)[C@H]1C[C@@H](CCc2nc3cc(C(C)(C)C)ccc3[nH]2)C1 [pinometostat]
Outline: as §1

[19] = compound: CC1=C(C(CC(=O)N1)C2=CC=C(C=C2)C(F)(F)F)C(=O)NC3=C(C=C4C(=C3)C=NN4)F
Outline: as §1

[20] = compound: CC1=C(C2=C(C=C1)C(=O)C3=CC=CC=C3N2CCCN)C
Outline: as §1

Measured: log2 fold change

RPS26 (UniProt P62854)
inactive: [1] -0.164 | [2] -0.314 | [3] -0.607 | [4] 0.089 | [5] -0.102 | [6] -0.054 | [7] 0.057 | [8] -0.083 | [9] 0.058 | [10] -0.336 | [11] -0.149 | [12] 0.112 | [13] 0.127 | [14] 0.26 | [15] 0 | [16] -0.02 | [17] 0.085 | [18] 0.336 | [19] 0.082 | [20] -0.875

RNGTT (UniProt O60942)
inactive: [1] -0.023 | [2] 0.08 | [3] 0 | [4] 0.045 | [5] 0.153 | [6] -0.011 | [7] 0.09 | [8] 0.016 | [9] -0.043 | [10] 0.05 | [11] -0.041 | [12] -0.109 | [13] -0.052 | [14] -0.117 | [15] -0.02 | [16] -0.021 | [17] 0.048 | [18] -0.396 | [19] -0.011 | [20] 0.071

RPE (UniProt Q96AT9)
inactive: [1] 0.013 | [2] 0.106 | [3] 0.115 | [4] 0.083 | [5] 0.036 | [6] 0.04 | [7] 0.01 | [8] 0.037 | [9] 0.011 | [10] 0.05 | [11] 0.109 | [12] 0.032 | [13] -0.047 | [14] -0.088 | [15] -0.13 | [16] 0 | [17] -0.055 | [18] -0.032 | [19] -0.056 | [20] 0.149

RPS12 (UniProt P25398)
active: [20] -0.314
inactive: [1] -0.115 | [2] -0.082 | [3] -0.072 | [4] -0.001 | [5] -0.021 | [6] -0.002 | [7] 0.008 | [8] -0.02 | [9] 0.027 | [10] -0.05 | [11] -0.063 | [12] 0.036 | [13] 0.051 | [14] 0.043 | [15] 0.003 | [16] 0.036 | [17] -0.024 | [18] 0.024

RPRD2 (UniProt Q5VT52)
inactive: [1] 0.211 | [2] -0.012 | [3] -0.035 | [4] -0.093 | [5] -0.059 | [6] -0.034 | [7] 0.186 | [8] -0.133 | [9] -0.096 | [10] -0.206 | [11] -0.096 | [12] -0.103 | [13] -0.017 | [14] -0.048 | [15] -0.229 | [16] -0.262 | [17] 0.035 | [18] 0.138 | [20] -0.13

RPS20 isoform 2 (UniProt P60866)
inactive: [1] -0.129 | [2] -0.082 | [3] -0.171 | [4] 0.023 | [5] -0.004 | [6] -0.068 | [7] -0.04 | [8] -0.025 | [9] 0.05 | [10] -0.159 | [11] -0.103 | [12] 0.012 | [13] 0.02 | [14] 0.041 | [15] 0.046 | [16] -0.03 | [17] 0.012 | [18] 0.123
active: [20] -0.368

RNPEP (UniProt Q9H4A4)
inactive: [1] 0.053 | [2] 0.053 | [3] 0.053 | [4] 0.007 | [5] 0.009 | [6] 0.019 | [7] 0.036 | [8] -0.008 | [9] -0.004 | [10] -0.016 | [11] -0.004 | [12] -0.018 | [13] 0.02 | [14] 0.011 | [15] -0.055 | [16] -0.182 | [17] -0.021 | [18] 0.018 | [20] 0.137

RPUSD2 (UniProt Q8IZ73)
inactive: [1] 0 | [2] -0.015 | [3] -0.007 | [4] 0.006 | [5] 0.011 | [6] -0.019 | [7] 0.009 | [8] 0 | [9] -0.01 | [10] 0.019 | [11] 0.036 | [12] 0.017 | [13] 0.019 | [14] -0.041 | [15] 0.003 | [16] 0.028 | [17] 0.053 | [18] 0.013 | [19] 0.016 | [20] -0.008
